Results taken from US20260176636A1, “APTAMER-DIRECT INHIBITOR CONJUGATES AND METHODS OF USING THE SAME” (Duke University, priority 2022, published 2026).
For at least one compound, name, drawing or mass did not settle the structure.

System: normal human plasma
Assay: Thrombin time (TT) plasma coagulation assay
Conditions: 250 nM
Experimental: Plasma coagulation assays: Thrombin time (TT), prothrombin time (PT), and activated partial thromboplastin time (aPTT) assays were performed in citrated normal human plasma on a hemostasis coagulation analyzer (Diagnostica Stago). For TT, 5 μL of inhibitors in the reaction buffer were mixed with 100 μL of plasma and incubated at 37° C. for 5 min. 50 μL of thrombin (6 NIH units/ml) in the reaction buffer was then added to initiate clotting. For PT, 5 μl of inhibitors in the reaction buffer were mixed with 50 μL of plasma and incubated at 37° C. for 5 min. 100 μL of TriniCLOT PT Excel S reagent was then added to initiate clotting. For aPTT, 5 μL of inhibitors in the reaction buffer were mixed with 50 μL of plasma and incubated at 37° C. for 5 min, 50 μL of TriniCLOT aPTT S reagents was then added followed by another 5 min incubation at 37° C. Finally, 50 μL of 20 mM CaCl2) was added to initiate clotting. To characterize antidote reversal of HD22-7A-DAB in the above assays, 5 μL AO2 (finial concentration 2 μM) in the reaction buffer was added after 5-min incubation between plasma and HD22-7A-DAB, followed by another 5 min of incubation before the next step. All assays are performed induplicates.

Q: For `[H]/N=C(/N)c1ccc(NCc2nc3cc(C(=O)N(CCC(=O)O)c4ccccn4)ccc3n2C)cc1` [DAB, dabigatran, reference compound], which TT clotting time is on record?
A: 518 s
